Reference: patent publication US20160002355A1
Results are given in words; binding and its absence hold for the method and conditions named. Some binding calls cover weakened binding; strength is not graded here.

B1: murine mAb 4.25B10.15 (antibody, IgG1, V domains shown)
VH: QVQLQQSGAELVRPGTSVKVSCKASGYAFTNYLIEWVKQRPGQGLEWIGVINPGSGGTNYNEKFEAKATLTADKSSSTAYMQLSSLTSDDSAVYFCARHGSSYWYFDVWGAGTTVTVSS
VL: DIVMTQSPATLSVTPGDRVSLSCRASQSISDYLHWYQQKSHESPRLLIKYASQSISGIPSRFSGSGSGSDFTLSINSVEPEDVGVYYCQNGHSFPYTFGGGTKLEIK
B2: murine mAb 1.9E1.1 (antibody, IgG1, V domains shown)
VH: QVQLQQSGAELVMPGASVKMSCKASGYTFTDYWMYWVNQRPGQGLEWIGAIDTSDSYTTYNQNFKGKATLTVDESSSTAYMQLNSLTSEDSAVYYCARSGFPLFYYPMDYWGQGTSVTVSS
VL: QAVVTQESALTTSPGETVTLTCRSSTGAVTTSNYANWVQEKPDHLFTGLIGGTVNRAPGVPARFSGSLIGDKAALTITGAQTEDEAVYFCALWYSNHLVFGGGTKLTVL

Legend:
[1] = molecular target: anti-Complex I antibody (anti-HCMV antibody); assay: preliminary HCMV PK ELISA, anti-ID as plate coat, polyclonal anti-human detection
[2] = molecular target: anti-Complex I antibody (anti-HCMV antibody); assay: anti-CI clinical PK ELISA: anti-ID coated on the plate captures anti-CI from spiked human serum, detection with HRP-mouse anti-huIgG Fc gamma; readout % recovery
[3] = molecular target: anti-Complex I antibody (anti-HCMV antibody); assay: sandwich ELISA: anti-ID coated at 1 ug/mL, anti-HCMV antibody in assay diluent/1% normal human serum, detection with HRP-sheep anti-huIgG; readout S/N ratio

| Binder | binding [1] | binding [2] | binding [3] |
| --- | --- | --- | --- |
| B1 | binds | binds |  |
| B2 |  |  | no binding (tested: 50 ng/ml in well) |
